The source of these data is paper doi:10.1101/2023.02.03.527063 (bioRxiv, 2023).

Amino acid sequences for entries named in this document (tags omitted).
UniProt Q12824: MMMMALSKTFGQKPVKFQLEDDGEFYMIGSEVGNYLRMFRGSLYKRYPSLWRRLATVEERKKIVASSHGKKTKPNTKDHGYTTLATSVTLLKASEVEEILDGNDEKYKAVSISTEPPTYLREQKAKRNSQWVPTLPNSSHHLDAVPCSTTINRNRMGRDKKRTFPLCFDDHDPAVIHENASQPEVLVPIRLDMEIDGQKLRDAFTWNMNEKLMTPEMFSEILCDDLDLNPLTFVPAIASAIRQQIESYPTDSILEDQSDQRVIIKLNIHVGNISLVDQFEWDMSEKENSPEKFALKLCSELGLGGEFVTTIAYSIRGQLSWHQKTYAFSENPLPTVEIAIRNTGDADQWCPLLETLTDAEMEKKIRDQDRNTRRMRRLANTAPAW
UniProt Q969G3: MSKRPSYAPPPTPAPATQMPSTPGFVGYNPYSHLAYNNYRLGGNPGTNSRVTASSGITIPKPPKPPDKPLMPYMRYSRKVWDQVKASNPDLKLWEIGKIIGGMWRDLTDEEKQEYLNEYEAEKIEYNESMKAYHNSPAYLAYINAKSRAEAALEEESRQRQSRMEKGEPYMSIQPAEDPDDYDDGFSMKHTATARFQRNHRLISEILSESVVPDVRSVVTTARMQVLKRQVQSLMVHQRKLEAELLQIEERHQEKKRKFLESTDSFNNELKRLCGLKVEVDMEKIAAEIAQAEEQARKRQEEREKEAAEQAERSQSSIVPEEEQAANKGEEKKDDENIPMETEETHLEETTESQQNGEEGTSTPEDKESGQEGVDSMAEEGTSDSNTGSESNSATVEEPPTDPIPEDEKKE
UniProt Q92925: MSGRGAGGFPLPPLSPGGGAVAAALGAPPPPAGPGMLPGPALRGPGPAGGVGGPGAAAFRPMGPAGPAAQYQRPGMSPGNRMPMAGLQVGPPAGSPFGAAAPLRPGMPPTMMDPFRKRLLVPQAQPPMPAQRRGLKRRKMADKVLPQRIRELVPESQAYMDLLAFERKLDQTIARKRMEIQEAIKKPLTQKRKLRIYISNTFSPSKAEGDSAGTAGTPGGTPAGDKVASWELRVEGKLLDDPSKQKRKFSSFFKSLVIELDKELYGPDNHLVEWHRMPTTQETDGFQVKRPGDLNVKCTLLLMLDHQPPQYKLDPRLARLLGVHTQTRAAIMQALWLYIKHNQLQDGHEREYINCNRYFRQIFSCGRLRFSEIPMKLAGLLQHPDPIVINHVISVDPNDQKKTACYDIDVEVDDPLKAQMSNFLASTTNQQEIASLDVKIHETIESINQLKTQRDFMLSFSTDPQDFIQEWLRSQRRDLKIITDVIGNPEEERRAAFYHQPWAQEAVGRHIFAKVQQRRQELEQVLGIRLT
UniProt Q8TAQ2: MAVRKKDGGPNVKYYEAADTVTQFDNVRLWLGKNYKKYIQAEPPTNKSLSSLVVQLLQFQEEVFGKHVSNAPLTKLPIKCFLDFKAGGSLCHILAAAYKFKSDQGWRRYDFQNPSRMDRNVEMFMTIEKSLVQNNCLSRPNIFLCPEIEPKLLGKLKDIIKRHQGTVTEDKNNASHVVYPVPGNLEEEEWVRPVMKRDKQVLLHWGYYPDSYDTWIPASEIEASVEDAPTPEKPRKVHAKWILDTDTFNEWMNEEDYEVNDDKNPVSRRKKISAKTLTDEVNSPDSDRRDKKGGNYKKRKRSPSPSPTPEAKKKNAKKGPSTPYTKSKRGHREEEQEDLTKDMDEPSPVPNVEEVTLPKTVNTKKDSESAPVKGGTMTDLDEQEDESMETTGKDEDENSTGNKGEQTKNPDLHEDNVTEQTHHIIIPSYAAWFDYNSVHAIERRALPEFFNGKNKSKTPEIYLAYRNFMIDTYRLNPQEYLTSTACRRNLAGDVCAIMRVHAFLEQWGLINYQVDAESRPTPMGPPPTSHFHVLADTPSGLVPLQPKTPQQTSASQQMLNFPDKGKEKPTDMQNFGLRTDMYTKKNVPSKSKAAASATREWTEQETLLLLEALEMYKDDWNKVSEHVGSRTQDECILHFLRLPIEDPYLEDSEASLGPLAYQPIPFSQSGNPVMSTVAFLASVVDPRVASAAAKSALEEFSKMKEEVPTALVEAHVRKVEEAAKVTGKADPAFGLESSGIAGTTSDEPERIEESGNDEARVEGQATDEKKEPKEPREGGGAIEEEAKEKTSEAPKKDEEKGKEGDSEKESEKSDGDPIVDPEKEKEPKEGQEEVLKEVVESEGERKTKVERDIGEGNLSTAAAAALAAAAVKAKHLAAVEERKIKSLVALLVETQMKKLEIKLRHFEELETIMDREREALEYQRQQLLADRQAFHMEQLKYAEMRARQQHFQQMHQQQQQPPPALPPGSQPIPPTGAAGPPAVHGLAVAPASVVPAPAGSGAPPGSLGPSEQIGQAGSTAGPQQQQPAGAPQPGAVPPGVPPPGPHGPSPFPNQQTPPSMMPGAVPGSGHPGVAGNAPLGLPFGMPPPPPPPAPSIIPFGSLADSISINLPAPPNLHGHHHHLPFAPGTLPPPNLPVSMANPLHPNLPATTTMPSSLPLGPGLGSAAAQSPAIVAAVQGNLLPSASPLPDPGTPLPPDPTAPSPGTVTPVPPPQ
UniProt Q92922: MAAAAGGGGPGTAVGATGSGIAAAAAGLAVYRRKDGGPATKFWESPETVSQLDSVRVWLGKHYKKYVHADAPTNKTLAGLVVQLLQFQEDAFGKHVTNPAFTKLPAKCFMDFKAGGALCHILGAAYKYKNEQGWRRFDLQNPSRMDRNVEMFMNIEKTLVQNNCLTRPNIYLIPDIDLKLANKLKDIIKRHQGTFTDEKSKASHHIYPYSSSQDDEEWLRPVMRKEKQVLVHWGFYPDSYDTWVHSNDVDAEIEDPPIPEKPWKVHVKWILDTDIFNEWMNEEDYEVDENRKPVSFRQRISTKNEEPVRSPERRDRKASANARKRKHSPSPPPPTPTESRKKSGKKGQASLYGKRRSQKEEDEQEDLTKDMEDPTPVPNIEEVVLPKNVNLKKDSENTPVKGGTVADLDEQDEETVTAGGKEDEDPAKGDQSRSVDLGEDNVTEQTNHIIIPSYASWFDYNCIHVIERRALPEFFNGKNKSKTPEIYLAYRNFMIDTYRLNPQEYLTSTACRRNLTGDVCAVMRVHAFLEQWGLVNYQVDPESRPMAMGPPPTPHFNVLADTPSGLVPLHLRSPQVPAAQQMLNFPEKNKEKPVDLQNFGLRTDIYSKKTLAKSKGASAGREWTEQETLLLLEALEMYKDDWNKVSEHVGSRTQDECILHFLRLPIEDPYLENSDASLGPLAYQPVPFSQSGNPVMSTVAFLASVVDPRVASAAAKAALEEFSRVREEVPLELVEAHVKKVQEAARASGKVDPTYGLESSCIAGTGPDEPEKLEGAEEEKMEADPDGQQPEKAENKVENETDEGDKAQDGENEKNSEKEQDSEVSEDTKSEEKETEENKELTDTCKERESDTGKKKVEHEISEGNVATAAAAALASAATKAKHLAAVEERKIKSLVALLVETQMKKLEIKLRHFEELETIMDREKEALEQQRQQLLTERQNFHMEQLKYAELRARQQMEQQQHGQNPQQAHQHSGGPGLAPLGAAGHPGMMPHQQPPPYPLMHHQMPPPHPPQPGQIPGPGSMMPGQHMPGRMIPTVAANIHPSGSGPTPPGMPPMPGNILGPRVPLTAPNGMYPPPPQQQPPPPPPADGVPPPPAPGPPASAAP

For the assay, the target named is T1, Pregnane X receptor (PXR) in ShP51 cells (human) (UniProt O75469).
T1 sequence: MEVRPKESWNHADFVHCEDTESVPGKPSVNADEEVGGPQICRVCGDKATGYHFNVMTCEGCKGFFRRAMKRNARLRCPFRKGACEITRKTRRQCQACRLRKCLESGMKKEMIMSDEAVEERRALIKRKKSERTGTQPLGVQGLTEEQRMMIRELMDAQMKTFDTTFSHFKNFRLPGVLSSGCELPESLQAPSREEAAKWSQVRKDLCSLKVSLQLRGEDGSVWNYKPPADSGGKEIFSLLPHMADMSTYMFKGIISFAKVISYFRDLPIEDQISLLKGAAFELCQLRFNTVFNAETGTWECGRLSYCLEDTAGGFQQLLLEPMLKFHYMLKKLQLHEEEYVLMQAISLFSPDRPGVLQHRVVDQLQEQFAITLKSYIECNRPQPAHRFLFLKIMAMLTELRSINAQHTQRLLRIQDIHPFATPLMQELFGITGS
The experiment in a line: affinity purification with mass spectrometry.

These are yes or no findings as the source states them, for the method shown. Binding seen in cells or lysates may run through a third protein. Here binding means that the protein was enriched with, or labelled near, the bait; the list need not be complete.

BAF47 (from UniProt Q12824 1-385): the binding result was “binds”. Consider BAF57 (from UniProt Q969G3 1-411), for which the binding result is on record as “binds”. To BAF60B (from UniProt Q92925 1-531) belongs “binds”; to BAF170 (from UniProt Q8TAQ2 1-1214), “binds”; to BAF155 (from UniProt Q92922 1-1105), “binds”.
